## Percent effect of library compounds

From ChEMBL document CHEMBL3988442, “University of Dundee, Small-Polar-MMV Screening Library” (2021).

T. brucei: 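Whole-parasite assay of Trypanosoma brucei over 72 hours; the read-out is not stated. Concentration: 30 µM. The record gives no direction; compounds that gave an IC50 in retests scored well above the rest, so higher reads as stronger inhibition. Values scatter widely below zero; nearly all retest evidence comes from the higher of the two concentrations used. About 64,000 compounds were tested under these conditions; 1.5% (about 940) showed 50% or more at least once.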
Leishmania in macrophages: 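Cell assay of Leishmania donovani living inside macrophages; the read-out is not stated. Tested at 30 µM. Direction is inferred from retests: higher values go with stronger inhibition. Of about 69,000 compounds tested this way, about 1,000 (1.5%) reached 50% or more in at least one test.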
Toxoplasma: 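Assay of Toxoplasma gondii numbers, read through their beta-galactosidase reporter with a colour substrate. Compounds at 10 µM. Higher reads as fewer parasites (inferred from which compounds were picked for retests). Size under these conditions: about 67,000 compounds, about 260 of them at 50% or above in at least one test.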

Each number is a percent effect as filed.
The record does not define 0% and 100%; most values in the screen are far below 50% and negative numbers occur (in some assays of this library far below -100).
The compounds are a random part of those screened.
A dash means the value is not listed here; it may have been measured.

structure | T. brucei | Leishmania in macrophages | Toxoplasma
COc1ccc2c(c1)c(-c1nc(C)ncc1CN)cn2C | -32.27% | 49% | 16.86%
Cc1noc(C)c1CN1CCCCC1c1nc(-c2ccccc2)no1 (stereo not given) | - | 17.5% | -7.939%
C[C@@H](NCc1cccc(Cl)c1)c1onc(-c2ccc(F)cc2)c1C(=O)O.Cl | -14.58% | 12% | 1.116%
O=C(O)[C@@H]1CCN(C(=O)Cc2ccccn2)[C@@H]1c1ccc(F)cc1 | - | 8.228% | -
COc1ccccc1C(NC(=O)C1CCCC1)c1noc(C)n1 (stereo not given) | 5.254% | 1.973% | 10.92%
CCn1nc(C)c2nc(C(C)C)nc(NCCOC)c21 | 37.58% | 10.7% | 21.04%
O[C@@H]1CN(Cc2cccnc2)C[C@H]1Oc1ccccc1 | -1.626% | 20.91% | -8.975%
O=C(CCc1ccccc1)N1CCCCC1Cn1cccn1 (stereo not given) | - | 1.291% | -6.244%
CC(Cn1cccn1)NC(=O)NCCc1ccc(Cl)s1 (stereo not given) | 5.778% | 15.55% | -
COc1cccc(CNCc2c(C)nc3sc(C)cn23)c1OC | 4.971% | 37.62% | -5.139%
CC(C)c1nn(C)c(N(C)C)c1CNCCC(=O)NC1CCCCC1 | -9.322% | 3.751% | -7.628%
[H][C@@]12CN(Cc3cccnc3)C(=O)N1CCN(S(=O)(=O)c1ccccc1)C2 | -21.51% | -7.781% | -3.495%
O=C(Nc1ccccc1)c1ccc(NCc2ccncc2)nn1 | -29.08% | -26.6% | 2.05%
CC(C)n1cc(N2Cc3nc(N4CCOCC4)ncc3C2=O)cn1 | -23.16% | 32.93% | 15.69%
Cn1nc(Cn2ccnc2)c2c1CN(C(=O)c1ccoc1)C2.O=C(O)C(F)(F)F | -23.02% | 54.37% | -4.452%
CC1CCN(C)c2ccccc2N1C(=O)c1ccnc(-n2cncn2)c1 (stereo not given) | -32.88% | 35.14% | 3.544%
Cc1nn(C)c(Oc2cccnc2)c1NC(=O)C1CCCO1 (stereo not given) | -19.55% | 5.826% | 7.555%
O=C(NC1CCCC1)c1nc2c(o1)CN(CCO)C2 | -10.63% | 28.93% | 4.782%
Cc1cc(N2CCC(c3ncc[nH]3)CC2)cc(C)n1 | -19.95% | 9.754% | -0.9377%
CC(CNC(=O)c1cc(C2CC2)on1)N1CCc2ccccc21 (stereo not given) | - | 27.27% | 5.175%
Cc1nc2c(c(C)c1CC(=O)Nc1ccccc1F)c(=O)[nH]n2C | 15.03% | 43.19% | -1.584%
CCN1CCOCC12CCN(C(=O)C1CCC1)CC2.O=C(O)C(F)(F)F | -58.96% | 6.855% | 2.981%
CCc1cc(N(C)Cc2ccncn2)n2nccc2n1 | -10.57% | -16.56% | -39.16%
O=C(O)C(F)(F)F.[H][C@@]12CCN(c3ncccn3)[C@]1([H])CC[C@@H](C(=O)NCc1cccs1)O2 | -28.93% | 26.47% | 12.18%
Cc1nn2cc(CCNC(=O)c3cc(C(C)C)nn3C)nc2s1 | -49.16% | 40.77% | -7.031%
CCc1ccsc1C(=O)N1CCCN(Cc2nccn2CC)CC1 | - | 15.41% | -4.76%
O=C(O)C(F)(F)F.O=C(O)C(F)(F)F.[H][C@]12CCC[C@@H](CN(C)C)[C@@]1([H])CN(Cc1ccc(OC)nc1)C2 | - | 15.73% | -10.07%
Cc1c(C)n(Cc2ccncc2)c2nc3c(c(N)c12)CCCCC3 | 36.77% | 8.725% | 4.782%
CN(CCC(N)=O)Cc1cc(Br)cs1 | -22.3% | -0.9062% | 15.89%
COCCOCC(=O)Nc1ccc(C)cc1Br | -10.61% | -7.937% | 5.988%
Clc1snnc1CN1CCCC1Cn1cncn1 (stereo not given) | - | -34.88% | -15.79%
CCc1ccc(S(=O)(=O)NCC2CCN(c3cnccn3)CC2)s1 | -0.8861% | -15.87% | 19.96%
Cc1cc(C(=O)N2CCCC(c3noc(C)n3)C2)[nH]n1 (stereo not given) | -2.087% | -5.756% | -
COc1ccc(C)c2c1N(C(=O)c1ccc3nnc(C)n3c1)CCC2 | -11.99% | 23.54% | 1.569%
Cc1c(NC(=O)c2cnc[nH]2)cccc1C(=O)NC(C)(C)C | -65.72% | 4.374% | -19.25%
O=C(NC1CC1)C1CN(c2nc3ccccc3s2)CCN1 (stereo not given) | 14.19% | 10.65% | -9.634%
CCOc1ccc(NC2CCN(CC(F)(F)F)C2=O)cc1C (stereo not given) | -0.7486% | -6.021% | 6.441%
CC1(C)CC(N2Cc3nc(N)ncc3C2=O)CC(C)(C)N1 | 1.511% | 0.1811% | 20.2%
COc1ccc(C)cc1CN(CC(N)=O)C(C)C | -45.12% | 24.24% | 11.02%
Cc1nn(CCC(=O)N(C)Cc2c(Cl)cnn2C)cc1Br | -19.7% | -29.98% | 3.579%
N#Cc1cc(NC(=O)c2cscn2)ccc1N1CCC(O)CC1 | -28.62% | 30.06% | 3.54%
CCn1nc(C)c2ccn(CC(=O)NCC3CCCO3)c(=O)c21 (stereo not given) | -19.69% | 3.541% | -2.528%
NC(=O)CCNC(=O)NCC1(c2ccccc2Cl)CCC1 | - | 16.4% | -11.23%
CC1CN(c2ncccc2C(=O)Nc2cccc3c2CCCC3)CCN1 (stereo not given) | -1.928% | 48.08% | 1.802%
CN(C)C(=O)C1(CCCc2ccccn2)CCN1Cc1nccn1C (stereo not given) | -11.62% | 15.66% | -6.761%
CNC(=O)CN1CCCC1c1ccccc1Br (stereo not given) | 13.79% | 20.22% | 1.535%
Cc1nn(C)c(N2CCOCC2)c1CNCc1ccnn1C | - | 5.141% | -10.41%
Cc1cnn(CC2CCCCN2C(=O)c2n[nH]c3ccccc23)c1 (stereo not given) | -25.15% | -37.76% | 13.38%
Cc1ccc(-c2ccccc2CC2(C(=O)NC(C)C)CCCNC2)cc1 (stereo not given) | 73.8% | 53.92% | -7.522%
CCNC(=O)NC(=O)CN(CC(C)O)c1ccccc1 (stereo not given) | 12.13% | 11.17% | -2.432%
O=C(O)C(F)(F)F.O=C(O)C(F)(F)F.O=C1COC2(COCCN(Cc3cccnc3)C2)CN1c1ccoc1 (stereo not given) | -55.83% | 5.659% | -11.97%
Cc1ccc(CNCC2CCN(CCO)CC2)cc1 | -4.392% | -12.85% | 3.663%
O=C(O)C(F)(F)F.[H][C@]12C[C@@H](CN(C)C)N(C(C)=O)[C@@]1([H])CCN(C(=O)c1cnc(C)cn1)C2 | -13.94% | -88.3% | 5.88%
O=C(O)C(F)(F)F.[H][C@@]12CCN(c3cnccn3)C[C@]1([H])CN(C(=O)C1CCCCC1)C2 | -13.48% | 10.54% | -11.27%
CCN(CCc1nccs1)C(=O)c1ncoc1C | -7.772% | -19.64% | 7.962%
CCCc1nc(NCCCOCC)c2c(n1)c(C)nn2CC | -18.63% | 51.09% | 72.53%
CC(C)c1nnc2n1CCN(CC(=O)Nc1sccc1C#N)C2 | -41.06% | -2.113% | -4.206%
CC(C)n1ccnc1C1CCN(Cc2ccc(C(F)(F)F)c(F)c2)CC1 | -44.36% | 44.44% | 15.94%